Source: the supplement of paper PMC7666118
The list shows a part of the results.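 The calls were made as follows: active = dose-dependent thermal stabilisation significant by F-test of dose-response against flat model at 10% FDR; inactive = not significant.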

The chains behind the UniProt entries cited, without tags or fusion partners. Where a name states a change or a piece, a line headed by the entry shows the natural chain unless it says otherwise.
UniProt P21333, whole entry: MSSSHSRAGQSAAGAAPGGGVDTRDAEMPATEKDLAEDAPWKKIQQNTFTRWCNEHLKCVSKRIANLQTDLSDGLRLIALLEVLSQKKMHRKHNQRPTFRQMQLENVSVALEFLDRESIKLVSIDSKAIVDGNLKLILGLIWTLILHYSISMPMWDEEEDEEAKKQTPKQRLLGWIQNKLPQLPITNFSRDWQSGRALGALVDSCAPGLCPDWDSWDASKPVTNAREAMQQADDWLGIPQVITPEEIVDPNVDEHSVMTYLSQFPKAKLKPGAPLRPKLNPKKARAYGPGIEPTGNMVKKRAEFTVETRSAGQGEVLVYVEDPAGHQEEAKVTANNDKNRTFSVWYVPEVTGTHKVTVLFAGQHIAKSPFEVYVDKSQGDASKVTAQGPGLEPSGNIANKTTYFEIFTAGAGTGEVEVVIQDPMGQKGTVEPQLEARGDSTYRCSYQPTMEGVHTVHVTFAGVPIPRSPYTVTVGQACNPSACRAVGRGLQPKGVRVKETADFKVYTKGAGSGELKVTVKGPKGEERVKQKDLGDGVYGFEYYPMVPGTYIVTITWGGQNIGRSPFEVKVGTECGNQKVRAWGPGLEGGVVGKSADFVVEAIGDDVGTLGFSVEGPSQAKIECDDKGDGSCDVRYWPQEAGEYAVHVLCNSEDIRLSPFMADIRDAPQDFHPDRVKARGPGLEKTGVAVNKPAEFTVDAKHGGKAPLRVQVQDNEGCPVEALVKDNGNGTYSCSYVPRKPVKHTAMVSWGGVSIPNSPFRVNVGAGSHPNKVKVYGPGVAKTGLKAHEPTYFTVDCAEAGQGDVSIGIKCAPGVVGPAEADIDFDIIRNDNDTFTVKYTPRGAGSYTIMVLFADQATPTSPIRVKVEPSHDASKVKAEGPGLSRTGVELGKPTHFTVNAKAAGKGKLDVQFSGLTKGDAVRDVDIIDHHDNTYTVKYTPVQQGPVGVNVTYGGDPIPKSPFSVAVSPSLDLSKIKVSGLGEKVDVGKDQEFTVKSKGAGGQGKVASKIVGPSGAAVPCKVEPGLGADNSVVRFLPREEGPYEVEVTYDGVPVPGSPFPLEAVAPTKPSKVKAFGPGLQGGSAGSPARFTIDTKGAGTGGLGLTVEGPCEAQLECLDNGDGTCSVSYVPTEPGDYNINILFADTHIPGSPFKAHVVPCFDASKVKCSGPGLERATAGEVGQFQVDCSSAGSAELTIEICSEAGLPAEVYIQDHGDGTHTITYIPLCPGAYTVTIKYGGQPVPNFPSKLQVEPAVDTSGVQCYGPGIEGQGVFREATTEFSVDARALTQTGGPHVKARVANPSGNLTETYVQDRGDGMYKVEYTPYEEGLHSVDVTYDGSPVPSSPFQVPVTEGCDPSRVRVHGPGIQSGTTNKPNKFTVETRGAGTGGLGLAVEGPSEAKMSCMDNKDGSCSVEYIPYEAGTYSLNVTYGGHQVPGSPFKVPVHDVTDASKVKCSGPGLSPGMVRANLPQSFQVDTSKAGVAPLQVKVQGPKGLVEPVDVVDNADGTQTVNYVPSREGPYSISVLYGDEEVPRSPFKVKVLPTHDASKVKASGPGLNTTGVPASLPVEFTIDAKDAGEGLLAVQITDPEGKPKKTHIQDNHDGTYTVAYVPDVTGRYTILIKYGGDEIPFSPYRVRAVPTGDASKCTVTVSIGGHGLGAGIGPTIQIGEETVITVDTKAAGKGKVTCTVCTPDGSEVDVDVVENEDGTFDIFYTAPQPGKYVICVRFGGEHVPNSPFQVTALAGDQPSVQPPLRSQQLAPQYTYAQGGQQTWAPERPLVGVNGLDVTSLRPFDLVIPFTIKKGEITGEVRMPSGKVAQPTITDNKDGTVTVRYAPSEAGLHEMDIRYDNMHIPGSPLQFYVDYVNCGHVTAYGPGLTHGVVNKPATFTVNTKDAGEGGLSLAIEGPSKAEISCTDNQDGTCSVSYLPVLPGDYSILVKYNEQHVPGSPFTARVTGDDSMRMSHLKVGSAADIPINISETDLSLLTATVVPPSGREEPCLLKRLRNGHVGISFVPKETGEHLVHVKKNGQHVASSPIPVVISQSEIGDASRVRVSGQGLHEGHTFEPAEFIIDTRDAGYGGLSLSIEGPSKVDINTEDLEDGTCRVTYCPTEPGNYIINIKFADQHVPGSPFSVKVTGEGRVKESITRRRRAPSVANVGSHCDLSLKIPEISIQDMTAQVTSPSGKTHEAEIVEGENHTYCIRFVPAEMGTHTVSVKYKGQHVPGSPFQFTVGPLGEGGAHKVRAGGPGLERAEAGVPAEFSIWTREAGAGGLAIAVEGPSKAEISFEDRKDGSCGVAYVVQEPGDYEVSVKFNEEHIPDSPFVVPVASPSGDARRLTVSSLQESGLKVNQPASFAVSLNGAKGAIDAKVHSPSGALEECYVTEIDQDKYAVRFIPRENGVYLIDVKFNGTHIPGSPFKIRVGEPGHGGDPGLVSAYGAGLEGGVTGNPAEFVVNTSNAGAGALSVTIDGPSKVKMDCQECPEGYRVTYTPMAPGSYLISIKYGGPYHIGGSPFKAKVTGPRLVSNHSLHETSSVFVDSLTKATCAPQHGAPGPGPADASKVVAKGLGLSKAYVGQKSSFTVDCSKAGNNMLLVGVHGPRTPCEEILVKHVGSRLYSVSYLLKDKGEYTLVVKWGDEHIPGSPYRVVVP
UniProt O00471: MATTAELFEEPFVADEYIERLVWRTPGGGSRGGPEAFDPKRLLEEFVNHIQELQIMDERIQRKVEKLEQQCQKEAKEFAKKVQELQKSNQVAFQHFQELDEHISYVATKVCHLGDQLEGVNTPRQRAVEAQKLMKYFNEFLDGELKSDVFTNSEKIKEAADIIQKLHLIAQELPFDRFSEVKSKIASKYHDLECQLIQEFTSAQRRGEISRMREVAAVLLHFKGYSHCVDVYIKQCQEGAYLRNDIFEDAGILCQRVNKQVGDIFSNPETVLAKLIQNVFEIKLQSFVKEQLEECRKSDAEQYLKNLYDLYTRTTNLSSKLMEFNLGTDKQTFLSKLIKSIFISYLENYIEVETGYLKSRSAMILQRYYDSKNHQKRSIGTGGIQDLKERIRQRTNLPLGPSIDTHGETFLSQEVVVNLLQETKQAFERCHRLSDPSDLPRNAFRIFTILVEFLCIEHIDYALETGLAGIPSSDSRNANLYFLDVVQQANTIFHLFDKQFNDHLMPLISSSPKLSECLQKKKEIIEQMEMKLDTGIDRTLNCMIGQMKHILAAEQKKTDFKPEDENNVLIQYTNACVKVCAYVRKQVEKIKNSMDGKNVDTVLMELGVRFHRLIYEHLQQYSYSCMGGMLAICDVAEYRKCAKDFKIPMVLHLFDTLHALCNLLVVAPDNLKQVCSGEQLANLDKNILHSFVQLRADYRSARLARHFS
UniProt Q7Z6M2: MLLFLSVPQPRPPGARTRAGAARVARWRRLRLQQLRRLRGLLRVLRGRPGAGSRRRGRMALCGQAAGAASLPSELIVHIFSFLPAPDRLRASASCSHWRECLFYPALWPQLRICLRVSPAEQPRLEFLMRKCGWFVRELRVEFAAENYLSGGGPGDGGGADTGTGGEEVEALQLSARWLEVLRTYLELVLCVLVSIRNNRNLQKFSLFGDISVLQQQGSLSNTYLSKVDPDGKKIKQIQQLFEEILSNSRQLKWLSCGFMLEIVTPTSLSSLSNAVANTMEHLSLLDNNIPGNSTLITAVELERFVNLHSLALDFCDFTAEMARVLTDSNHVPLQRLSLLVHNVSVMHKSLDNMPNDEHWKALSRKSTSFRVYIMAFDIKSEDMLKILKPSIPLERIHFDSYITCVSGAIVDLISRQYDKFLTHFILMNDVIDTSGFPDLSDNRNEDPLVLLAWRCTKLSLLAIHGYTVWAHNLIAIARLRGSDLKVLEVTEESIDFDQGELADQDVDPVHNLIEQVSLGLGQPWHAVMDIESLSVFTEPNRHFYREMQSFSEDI
UniProt Q8WUF8: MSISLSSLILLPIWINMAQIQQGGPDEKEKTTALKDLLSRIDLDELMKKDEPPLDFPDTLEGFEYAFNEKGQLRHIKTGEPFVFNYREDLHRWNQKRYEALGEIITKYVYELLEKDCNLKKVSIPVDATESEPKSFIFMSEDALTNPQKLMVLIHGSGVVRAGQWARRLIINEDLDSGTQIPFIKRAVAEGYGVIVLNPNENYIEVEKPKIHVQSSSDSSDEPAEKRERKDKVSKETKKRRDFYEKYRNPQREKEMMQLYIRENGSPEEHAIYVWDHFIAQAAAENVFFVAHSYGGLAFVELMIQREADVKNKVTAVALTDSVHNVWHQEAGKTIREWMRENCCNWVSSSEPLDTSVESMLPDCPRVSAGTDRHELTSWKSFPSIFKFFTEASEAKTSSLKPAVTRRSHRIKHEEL
UniProt P85037: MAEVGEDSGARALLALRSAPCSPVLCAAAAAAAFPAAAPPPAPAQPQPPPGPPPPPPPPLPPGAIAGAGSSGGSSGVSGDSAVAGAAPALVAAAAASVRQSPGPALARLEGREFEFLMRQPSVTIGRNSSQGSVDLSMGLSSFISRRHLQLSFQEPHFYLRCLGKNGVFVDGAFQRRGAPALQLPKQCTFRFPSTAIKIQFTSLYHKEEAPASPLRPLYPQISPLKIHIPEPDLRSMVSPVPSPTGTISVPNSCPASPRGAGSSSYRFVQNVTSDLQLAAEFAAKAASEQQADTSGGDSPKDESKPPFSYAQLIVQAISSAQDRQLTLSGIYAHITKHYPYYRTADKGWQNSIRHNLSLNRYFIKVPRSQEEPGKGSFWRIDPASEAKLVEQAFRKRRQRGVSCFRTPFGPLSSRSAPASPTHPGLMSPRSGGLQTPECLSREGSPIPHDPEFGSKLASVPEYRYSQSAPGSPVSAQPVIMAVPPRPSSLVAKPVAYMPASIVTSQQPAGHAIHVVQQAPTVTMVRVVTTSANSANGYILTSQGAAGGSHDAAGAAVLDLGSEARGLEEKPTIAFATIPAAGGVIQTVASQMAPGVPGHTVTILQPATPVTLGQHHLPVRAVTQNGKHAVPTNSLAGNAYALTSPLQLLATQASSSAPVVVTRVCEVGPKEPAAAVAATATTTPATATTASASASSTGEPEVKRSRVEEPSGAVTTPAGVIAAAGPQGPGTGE
UniProt P07992: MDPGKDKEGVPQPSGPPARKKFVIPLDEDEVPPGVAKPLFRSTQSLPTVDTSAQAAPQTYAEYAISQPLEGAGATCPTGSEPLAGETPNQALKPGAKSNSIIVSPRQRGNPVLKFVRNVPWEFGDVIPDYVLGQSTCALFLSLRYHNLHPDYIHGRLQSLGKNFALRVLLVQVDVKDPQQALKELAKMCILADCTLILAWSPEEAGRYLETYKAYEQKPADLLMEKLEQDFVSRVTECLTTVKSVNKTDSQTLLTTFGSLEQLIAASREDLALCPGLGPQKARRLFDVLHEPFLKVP
UniProt Q8TF40: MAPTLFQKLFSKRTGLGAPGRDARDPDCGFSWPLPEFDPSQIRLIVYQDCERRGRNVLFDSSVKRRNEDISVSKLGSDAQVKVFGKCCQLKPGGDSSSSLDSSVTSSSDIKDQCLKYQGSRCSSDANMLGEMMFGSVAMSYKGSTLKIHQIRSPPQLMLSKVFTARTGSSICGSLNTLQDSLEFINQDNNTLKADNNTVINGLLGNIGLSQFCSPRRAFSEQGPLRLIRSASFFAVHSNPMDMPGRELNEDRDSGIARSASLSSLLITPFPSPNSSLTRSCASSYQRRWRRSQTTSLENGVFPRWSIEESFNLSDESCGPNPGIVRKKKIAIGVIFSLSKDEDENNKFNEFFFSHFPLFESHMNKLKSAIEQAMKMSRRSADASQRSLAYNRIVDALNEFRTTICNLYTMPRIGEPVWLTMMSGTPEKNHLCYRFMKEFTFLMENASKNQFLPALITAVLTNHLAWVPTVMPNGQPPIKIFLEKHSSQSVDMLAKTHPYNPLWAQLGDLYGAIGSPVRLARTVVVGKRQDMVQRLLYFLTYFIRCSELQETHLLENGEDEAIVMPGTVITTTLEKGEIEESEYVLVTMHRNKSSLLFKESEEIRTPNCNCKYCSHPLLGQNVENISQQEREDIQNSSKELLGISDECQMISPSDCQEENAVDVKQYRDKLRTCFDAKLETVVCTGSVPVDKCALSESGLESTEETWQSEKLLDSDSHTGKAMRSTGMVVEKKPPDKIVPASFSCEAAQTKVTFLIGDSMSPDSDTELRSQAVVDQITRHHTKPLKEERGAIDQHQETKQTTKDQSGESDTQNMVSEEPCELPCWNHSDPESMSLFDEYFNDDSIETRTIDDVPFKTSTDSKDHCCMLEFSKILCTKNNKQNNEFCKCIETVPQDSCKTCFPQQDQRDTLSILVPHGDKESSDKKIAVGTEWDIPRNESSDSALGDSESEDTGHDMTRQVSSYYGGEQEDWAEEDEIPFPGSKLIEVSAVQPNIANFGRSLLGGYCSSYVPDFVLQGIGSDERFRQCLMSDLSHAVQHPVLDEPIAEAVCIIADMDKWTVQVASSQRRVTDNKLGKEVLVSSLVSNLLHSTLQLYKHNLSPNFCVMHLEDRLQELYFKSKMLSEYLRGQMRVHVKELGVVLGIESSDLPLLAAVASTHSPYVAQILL

These targets were tested with Nc1nc2c(ncn2[C@@H]2O[C@H](COP(=O)(O)OP(=O)(O)OP(=O)(O)O)[C@@H](O)[C@H]2O)c(=O)[nH]1 (assay: dose-dependent thermal stabilisation call (2D-TPP, DLPTP, 10% FDR) (binary (1 = stabilised)); higher = stabilised by the compound). Details: system: Jurkat gel-filtered lysate; concentration range 1-500 µM.
Method: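 2D thermal proteome profiling in gel-filtered Jurkat E6.1 lysate (2 mg/ml) treated with NaGTP (0, 1, 10, 100, 500 uM) for 10 min at room temperature, then heated 3 min at one of 12 temperatures (42-63.9 C). Soluble protein was quantified by TMT10 MS. The value is the DLPTP call of the paper: dose-dependent thermal stabilisation over all temperatures at 10% FDR (F-test of a dose-response against a flat model); one experiment, one call per tested protein.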

Target | dose-dependent thermal stabilisation call
FAH (UniProt P16930) | inactive: 0
ELAVL1 (UniProt Q15717) | active: 1
ELP3 (UniProt Q9H9T3) | inactive: 0
EFHD1 (UniProt Q9BUP0) | inactive: 0
EZR (UniProt P15311) | inactive: 0
ENO2 (UniProt P09104) | inactive: 0
EIF3A (UniProt Q14152) | inactive: 0
ELOB (UniProt Q15370) | inactive: 0
EIF2S2 (UniProt P20042) | inactive: 0
EIF2A (UniProt Q9BY44) | inactive: 0
EIF3B (UniProt P55884) | inactive: 0
FAIM (UniProt Q9NVQ4) | inactive: 0
FLNA (UniProt P21333) | inactive: 0
ETV6 (UniProt P41212) | inactive: 0
ENOSF1 (UniProt Q7L5Y1) | inactive: 0
FKBP4 (UniProt Q02790) | inactive: 0
EXOC5 (UniProt O00471) | inactive: 0
EIF2B1 (UniProt Q14232) | inactive: 0
FHL1 (UniProt Q13642) | inactive: 0
FAM117B (UniProt Q6P1L5) | inactive: 0

Target | dose-dependent thermal stabilisation call
EIF3G (UniProt O75821) | inactive: 0
FUBP1 (UniProt Q96AE4) | inactive: 0
FIBP (UniProt O43427) | active: 1
FBXL8 (UniProt Q96CD0) | inactive: 0
FRYL (UniProt O94915) | inactive: 0
FAM122B (UniProt Q7Z309) | inactive: 0
FHL3 (UniProt Q13643) | inactive: 0
FBXO33 (UniProt Q7Z6M2) | inactive: 0
FYB (UniProt O15117) | inactive: 0
ERCC4 (UniProt Q92889) | active: 1
FAM172A (UniProt Q8WUF8) | inactive: 0
FHIT (UniProt P49789) | inactive: 0
ELAC1 (UniProt Q9H777) | inactive: 0
FOXK1 (UniProt P85037) | inactive: 0
ENO3 (UniProt P13929) | inactive: 0
ERCC1 (UniProt P07992) | inactive: 0
FAM117A (UniProt Q9C073) | inactive: 0
FYCO1 (UniProt Q9BQS8) | inactive: 0
FKBP15 (UniProt Q5T1M5) | inactive: 0
FNIP1 (UniProt Q8TF40) | inactive: 0

Reprinted at random: 2 records from the list
Target | dose-dependent thermal stabilisation call
FRYL (UniProt O94915) | inactive: 0
FUBP1 (UniProt Q96AE4) | inactive: 0
